In paper PMC11663349 one finds binding data, which are given here for one substance.

Amino acid sequences for entries named in this document (tags omitted).
UniProt Q8N6T7: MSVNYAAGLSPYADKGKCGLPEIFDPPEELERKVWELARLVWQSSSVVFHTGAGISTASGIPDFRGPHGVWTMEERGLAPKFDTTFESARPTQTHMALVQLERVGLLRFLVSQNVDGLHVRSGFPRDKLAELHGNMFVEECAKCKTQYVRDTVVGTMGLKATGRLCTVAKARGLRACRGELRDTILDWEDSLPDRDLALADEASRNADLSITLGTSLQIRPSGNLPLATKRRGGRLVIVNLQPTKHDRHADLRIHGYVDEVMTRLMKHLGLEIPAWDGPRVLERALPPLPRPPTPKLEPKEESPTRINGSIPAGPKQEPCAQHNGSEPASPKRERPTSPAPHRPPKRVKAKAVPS

The target of the assay is T1, UHRF1 (Ubiquitin-like, containing PHD and RING Finger domains 1), endogenous in T24 (human (endogenous in T24)) (UniProt Q96T88).
T1 sequence: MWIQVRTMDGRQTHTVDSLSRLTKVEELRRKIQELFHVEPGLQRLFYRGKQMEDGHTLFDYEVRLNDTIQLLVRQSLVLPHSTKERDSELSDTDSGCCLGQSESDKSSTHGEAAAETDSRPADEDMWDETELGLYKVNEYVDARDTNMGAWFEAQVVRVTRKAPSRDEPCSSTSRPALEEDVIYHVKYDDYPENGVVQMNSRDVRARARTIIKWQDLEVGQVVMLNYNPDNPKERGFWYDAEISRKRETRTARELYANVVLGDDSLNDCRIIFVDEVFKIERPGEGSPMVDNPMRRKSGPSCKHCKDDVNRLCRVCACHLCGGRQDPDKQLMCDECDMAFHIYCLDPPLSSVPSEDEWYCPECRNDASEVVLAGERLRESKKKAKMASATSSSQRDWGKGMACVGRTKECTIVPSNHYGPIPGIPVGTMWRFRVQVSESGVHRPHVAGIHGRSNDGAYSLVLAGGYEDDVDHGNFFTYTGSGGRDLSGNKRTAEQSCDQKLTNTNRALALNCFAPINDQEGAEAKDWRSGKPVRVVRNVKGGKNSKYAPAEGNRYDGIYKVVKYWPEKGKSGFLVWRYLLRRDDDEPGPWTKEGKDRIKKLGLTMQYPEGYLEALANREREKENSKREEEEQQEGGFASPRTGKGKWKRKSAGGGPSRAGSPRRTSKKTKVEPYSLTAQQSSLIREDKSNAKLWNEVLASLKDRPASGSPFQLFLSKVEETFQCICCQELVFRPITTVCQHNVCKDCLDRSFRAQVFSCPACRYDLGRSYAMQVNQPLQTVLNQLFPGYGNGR
The assay can be described thus: co-IP; endogenous proteins, T24 cell lysate in 200 mM KCl, 20 mM Tris-HCl pH 7.9, 5 mM MgCl2, 10% glycerol, 0.2 mM EDTA, 0.1% NP-40; antibodies or control IgG overnight at 4 °C; western blot; both directions.

These are yes or no findings as the source states them, for the method shown. In cells and extracts the contact can be indirect. Some binding calls cover weakened binding; strength is not graded here.

On to “Sirtuin-6 (SIRT6), endogenous (from UniProt Q8N6T7 1-355)”, for which the binding result was “binds”.
